Source: PubChem BioAssay AID1259254 (NCATS, 2017)

Screen: 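Gene knock-downs that lead to re-replication, shown by excess G2 DNA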 (primary screen)
Cells: human HCT116 colorectal cancer cells
Reagent: single siRNA against human genes
Duration: 3 days
Measurement: 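Imaged Hoechst DNA stain sorts each cell into a cycle phase by DNA amount; per plate, G2 fraction set to 0% for non-targeting and 100% for GMNN siRNA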
Scale: G2 robust z-score and G2 cells, % of GMNN control: higher = more G2 cells, more excess DNA replication
Active means: 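Active siRNAs have a G2 robust z of 5 or more median absolute deviations over the median, which in these data means about 38% or higher of GMNN control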
The whole screen tested about 59,000 reagents; shown is a random part of them. Of all reagents, about 1,550 (2.6%) were called active. 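G2 share is only a proxy for re-replication; each gene was hit by three separate siRNAs, and active genes were retested.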 Entries without a mark were called inactive. Not all columns of the deposit are shown. The record does not give: the amount of reagent.

VWA3B (von Willebrand factor A domain containing 3B) [SID160760847] | G2 robust z-score: 0.623; G2 cells, % of GMNN control: 7.35
VWA3B (von Willebrand factor A domain containing 3B) [SID160760849] | G2 robust z-score: -0.392; G2 cells, % of GMNN control: 0.209
VWA3B (von Willebrand factor A domain containing 3B) [SID160760850] | G2 robust z-score: 1.01; G2 cells, % of GMNN control: 10.1
RPS6KC1 (ribosomal protein S6 kinase C1) [SID160738172] | G2 robust z-score: -1.13; G2 cells, % of GMNN control: -4.99
RPS6KC1 (ribosomal protein S6 kinase C1) [SID160738173] | G2 robust z-score: -1.16; G2 cells, % of GMNN control: -5.16
RPS6KC1 (ribosomal protein S6 kinase C1) [SID160738174] | G2 robust z-score: 0.0854; G2 cells, % of GMNN control: 3.57
AK9 (adenylate kinase 9) [SID160761641] | G2 robust z-score: 0.563; G2 cells, % of GMNN control: 6.93
AK9 (adenylate kinase 9) [SID160761642] | G2 robust z-score: 0.979; G2 cells, % of GMNN control: 9.86
AK9 (adenylate kinase 9) [SID160761643] | G2 robust z-score: -0.305; G2 cells, % of GMNN control: 0.821
AK9 (adenylate kinase 9) [SID160761857] | G2 robust z-score: -0.429; G2 cells, % of GMNN control: -0.0526
AK9 (adenylate kinase 9) [SID160761858] | G2 robust z-score: -0.244; G2 cells, % of GMNN control: 1.25
AK9 (adenylate kinase 9) [SID160761859] | G2 robust z-score: 2.48; G2 cells, % of GMNN control: 20.4
AK9 (adenylate kinase 9) [SID160767231] | G2 robust z-score: 0.751; G2 cells, % of GMNN control: 8.25
AK9 (adenylate kinase 9) [SID160767232] | G2 robust z-score: -0.665; G2 cells, % of GMNN control: -1.71
AK9 (adenylate kinase 9) [SID160767233] | G2 robust z-score: 1; G2 cells, % of GMNN control: 10
TYK2 (tyrosine kinase 2) [SID160718484] | G2 robust z-score: -0.864; G2 cells, % of GMNN control: -3.11
TYK2 (tyrosine kinase 2) [SID160718485] | G2 robust z-score: 0.219; G2 cells, % of GMNN control: 4.51
TYK2 (tyrosine kinase 2) [SID160718486] | G2 robust z-score: 0.0633; G2 cells, % of GMNN control: 3.41
SACK1B (scaffolding CK1 anchoring protein B) [SID160761873] | G2 robust z-score: 1.15; G2 cells, % of GMNN control: 11.1
SACK1B (scaffolding CK1 anchoring protein B) [SID160761874] | G2 robust z-score: -0.597; G2 cells, % of GMNN control: -1.23
SACK1B (scaffolding CK1 anchoring protein B) [SID160761875] | G2 robust z-score: -0.616; G2 cells, % of GMNN control: -1.37
RERG (RAS like estrogen regulated growth inhibitor) [SID160732055] | G2 robust z-score: -0.37; G2 cells, % of GMNN control: 0.365
RERG (RAS like estrogen regulated growth inhibitor) [SID160753111] | G2 robust z-score: 0.133; G2 cells, % of GMNN control: 3.9
RERG (RAS like estrogen regulated growth inhibitor) [SID160753112] | G2 robust z-score: 0.0033; G2 cells, % of GMNN control: 2.99
